# PMC4523862
# By UniProt entry, the sequences of proteins in these tests, tags left out.
# UniProt Q9Y6K9: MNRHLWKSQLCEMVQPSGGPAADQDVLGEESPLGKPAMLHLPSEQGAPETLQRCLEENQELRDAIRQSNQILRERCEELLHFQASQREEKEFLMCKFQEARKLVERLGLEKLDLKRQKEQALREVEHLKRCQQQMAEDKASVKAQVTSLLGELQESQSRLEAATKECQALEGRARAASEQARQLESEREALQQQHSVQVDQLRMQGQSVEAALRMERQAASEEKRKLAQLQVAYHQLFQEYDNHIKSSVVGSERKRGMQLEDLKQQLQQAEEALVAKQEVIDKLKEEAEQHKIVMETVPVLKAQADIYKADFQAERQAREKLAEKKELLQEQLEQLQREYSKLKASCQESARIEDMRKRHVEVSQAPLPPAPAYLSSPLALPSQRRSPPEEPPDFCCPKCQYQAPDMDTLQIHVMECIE
# These are yes or no findings as the source states them, for the method shown. In cells and extracts the contact can be indirect. Some results given as binding are weak or reduced against the parent protein; the word gives no strength. For part of these data: Tags and fused reporters may be left off the sequences shown.
# Key:
# [1] = target: T1, Flag-USP18 (not stated (human or mouse cDNA cloned)) (UniProt Q9UMW8); experiment: co-IP; 293T cells transfected with HA-IKKα, HA-IKKβ or HA-NEMO and Flag-USP18 (Fig. 4d); precipitated with anti-Flag beads, blotted with HA
# T1 sequence: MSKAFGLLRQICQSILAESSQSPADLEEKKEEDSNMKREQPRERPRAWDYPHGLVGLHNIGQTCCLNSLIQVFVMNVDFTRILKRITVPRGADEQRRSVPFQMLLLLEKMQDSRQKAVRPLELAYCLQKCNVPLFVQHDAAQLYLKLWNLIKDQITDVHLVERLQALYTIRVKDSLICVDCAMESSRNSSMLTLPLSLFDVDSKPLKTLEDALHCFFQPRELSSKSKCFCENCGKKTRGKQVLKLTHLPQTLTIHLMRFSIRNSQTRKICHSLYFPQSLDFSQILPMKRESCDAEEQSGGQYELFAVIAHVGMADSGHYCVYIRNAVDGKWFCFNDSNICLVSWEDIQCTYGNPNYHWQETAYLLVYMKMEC
# [2] = target: T2, USP18 (endogenous, THP-1 derived macrophages) (human (endogenous in THP-1)) (UniProt Q9UMW8); experiment: co-IP; endogenous proteins, extracts of unstimulated THP-1 derived macrophages (Fig. 4h); precipitated with anti-USP18, immunoblot
# T2 sequence: T1 sequence
# [3] = target: T2, USP18 (endogenous, THP-1 derived macrophages) (human (endogenous in THP-1)); experiment: co-IP; endogenous proteins, extracts of THP-1 derived macrophages treated for various times with LPS (Fig. 4h); precipitated with anti-USP18, immunoblot
Substance,binding [1],binding [2],binding [3]
HA-NEMO (from UniProt Q9Y6K9 1-419),binds,,
"NEMO (endogenous, THP-1 derived macrophages) (from UniProt Q9Y6K9 1-419)",,binds weakly,binds
